The source of these data is paper PMC8013792, “Bacterial protein domains with a novel Ig‐like fold target human CEACAM receptors” (The EMBO Journal, 2021).

Chains of the proteins cited; added tags and fusions are not shown. A line that says so, or that is headed by a name, gives the form on record, which may keep a tag or linker. Residues count along the entry.
UniProt Q02192, residues 42-990: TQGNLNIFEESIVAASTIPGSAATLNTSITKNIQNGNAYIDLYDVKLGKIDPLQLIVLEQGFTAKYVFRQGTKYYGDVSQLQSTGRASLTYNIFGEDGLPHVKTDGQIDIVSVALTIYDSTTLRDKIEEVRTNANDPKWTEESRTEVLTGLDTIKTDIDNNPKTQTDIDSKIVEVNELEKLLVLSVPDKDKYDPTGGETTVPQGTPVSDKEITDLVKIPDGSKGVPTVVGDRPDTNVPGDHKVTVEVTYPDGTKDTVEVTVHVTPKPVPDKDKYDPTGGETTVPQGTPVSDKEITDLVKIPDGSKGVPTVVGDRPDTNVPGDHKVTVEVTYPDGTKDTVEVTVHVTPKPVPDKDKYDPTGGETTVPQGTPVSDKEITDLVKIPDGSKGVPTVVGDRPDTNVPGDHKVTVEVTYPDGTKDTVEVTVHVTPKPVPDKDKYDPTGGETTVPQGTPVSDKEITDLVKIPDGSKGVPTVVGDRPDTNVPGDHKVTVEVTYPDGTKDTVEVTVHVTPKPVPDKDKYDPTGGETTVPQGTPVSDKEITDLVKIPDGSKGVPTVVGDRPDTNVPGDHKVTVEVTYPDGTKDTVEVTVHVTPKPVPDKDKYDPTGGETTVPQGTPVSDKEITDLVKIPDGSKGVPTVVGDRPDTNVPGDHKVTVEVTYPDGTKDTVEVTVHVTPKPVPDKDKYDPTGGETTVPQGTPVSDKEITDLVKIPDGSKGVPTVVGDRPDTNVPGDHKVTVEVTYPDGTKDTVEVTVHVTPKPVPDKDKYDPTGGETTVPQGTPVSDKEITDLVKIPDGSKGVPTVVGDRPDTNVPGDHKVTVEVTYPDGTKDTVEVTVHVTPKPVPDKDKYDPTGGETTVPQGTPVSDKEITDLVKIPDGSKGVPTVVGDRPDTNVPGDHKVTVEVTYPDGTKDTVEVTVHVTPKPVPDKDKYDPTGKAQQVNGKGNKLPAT
tag-less unglycosylated CEACAM1 N-terminal domain (rCEACAM1-N, pET21d) (P13688, residues 34-141): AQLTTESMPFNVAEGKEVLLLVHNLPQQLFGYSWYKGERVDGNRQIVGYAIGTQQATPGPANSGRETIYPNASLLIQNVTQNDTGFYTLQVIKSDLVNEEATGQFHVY
glycosylated recombinant CEACAM1 extracellular domain (rCEACAM1-His) (P13688, residues 35-428): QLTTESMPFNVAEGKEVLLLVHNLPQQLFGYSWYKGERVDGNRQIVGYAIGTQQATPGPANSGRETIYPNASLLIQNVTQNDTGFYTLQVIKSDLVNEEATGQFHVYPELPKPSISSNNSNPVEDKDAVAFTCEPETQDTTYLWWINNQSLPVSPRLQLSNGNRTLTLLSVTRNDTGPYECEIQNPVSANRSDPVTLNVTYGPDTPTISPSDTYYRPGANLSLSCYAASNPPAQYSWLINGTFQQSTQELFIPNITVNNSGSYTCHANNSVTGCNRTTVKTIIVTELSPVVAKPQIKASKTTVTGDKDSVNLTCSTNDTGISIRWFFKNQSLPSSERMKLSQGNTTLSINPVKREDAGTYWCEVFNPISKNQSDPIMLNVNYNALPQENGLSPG

In experiment [1] the target is β-IgI3 domain of GBS β protein, tag removed with carboxypeptidase A (crystallised form) (Streptococcus agalactiae (GBS)). The experiment in a line: crystal structure; (β-IgI3)-(CEACAM1-N) complex, 3.25 Å, 1.8 M ammonium sulphate, 0.1 M sodium citrate pH 5.5; contacts by NCONT (CCP4), cut-off 4.0 Å; both purified.
Experiment [2] concerns the target α protein of group B Streptococcus, purified from GBS cultures (Streptococcus agalactiae (GBS)) (UniProt Q02192). The experiment in a line: condition: 30 μg/ml (legend; the methods say 10 μg/ml); far-Western, overlay or dot blot; purified GBS proteins separated by non-reducing SDS-PAGE, blotted, probed with rCEACAM1-His at 4°C; both purified.
Experiment [3] deals with glycosylated recombinant CEACAM1 extracellular domain (rCEACAM1-His) (human) (UniProt P13688). The experiment in a line: flow cytometry of coated dynabeads; rCEACAM1-His on nickel dynabeads, pre-incubated with rHopQ 1 h at 4 °C; β-IgSF-biotin coupled to streptavidin-PE (tetramers, 3 µg/mL); PBS + 0.1% BSA; both purified. (In general: A flow cytometer gives signals particle by particle.)

These are yes or no findings as the source states them, for the method shown. Some binding calls cover weakened binding; strength is not graded here.

Regarding “tag-less unglycosylated CEACAM1 N-terminal domain (rCEACAM1-N, pET21d) (from UniProt P13688 34-141) (domain or fragment)”, the binding result in experiment [1] is reported as “binds”. For the molecule “recombinant human CEACAM1, extracellular domain, 6xHis tagged, glycosylated (from UniProt P13688 35-428) (receptor)”, the binding entry in experiment [2] is “no binding”.

B1: biotinylated β-IgSF domain of GBS β protein (β-IgSF-biotin) (domain or fragment)
chain: ANENNQQKIELTVSPENITVYEGEDVKFTVTAKSDSKTTLDFSDLLTKYNPSVSDRISTNYKTNTDNHKIAEITIKNLKLNESQTVTLKAKDDSGNVVEKTFTITVQKKEEKQ
modifications: biotin, C-terminal
For the molecule B1, the binding entry in experiment [3] is recorded as “binds”.
